Experimental data taken from paper PMC8997993.
Results are given in words; binding and its absence hold for the method and conditions named. A result given as binding can be weak or reduced; the word gives no strength. Where a sequence is shown, tags or fusion partners need not be part of it. For some assays here: In cells and extracts the contact can be indirect.

T1: PRE1-cYFP-3× Myc (A. thaliana) (UniProt Q9FLE9)
T1 sequence: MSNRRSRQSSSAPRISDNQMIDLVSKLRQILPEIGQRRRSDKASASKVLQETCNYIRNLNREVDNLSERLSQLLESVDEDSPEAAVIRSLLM

T2: CIB5-cYFP-3× Myc (A. thaliana) (UniProt Q9C670)
T2 sequence: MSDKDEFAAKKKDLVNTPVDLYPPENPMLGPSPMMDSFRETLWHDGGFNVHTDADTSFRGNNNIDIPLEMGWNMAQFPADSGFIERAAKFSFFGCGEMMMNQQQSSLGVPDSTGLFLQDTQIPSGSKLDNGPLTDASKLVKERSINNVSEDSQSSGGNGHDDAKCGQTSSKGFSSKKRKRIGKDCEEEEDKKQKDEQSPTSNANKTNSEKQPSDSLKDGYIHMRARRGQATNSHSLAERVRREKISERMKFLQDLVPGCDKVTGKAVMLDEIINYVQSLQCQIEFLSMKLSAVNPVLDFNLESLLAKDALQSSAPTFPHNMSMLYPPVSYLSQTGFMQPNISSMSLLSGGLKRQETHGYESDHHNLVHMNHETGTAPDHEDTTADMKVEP


How the values were obtained:
[1] = molecular target: T1, PRE1-cYFP-3× Myc (A. thaliana); test: split reporter; BiFC in A. thaliana protoplasts: nYFP (1-155)-3×Flag and cYFP (156-239)-3×Myc fusions co-transformed; GHD7-mCherry as nuclear marker; confocal microscopy
[2] = molecular target: T2, CIB5-cYFP-3× Myc (A. thaliana); test: as above
[3] = molecular target: T1, PRE1-cYFP-3× Myc (A. thaliana); test: co-IP; BiFC plasmids co-transformed into A. thaliana protoplasts, 22 °C 12-16 h in the dark; total protein on anti-c-Myc affinity gel 4 h at 4 °C; washed with TTBS (17 mM Tris, 130 mM NaCl, pH 7.5, 1% Triton-X100); blots with anti-FLAG and anti-c-Myc
[4] = molecular target: T2, CIB5-cYFP-3× Myc (A. thaliana); test: as above
[5] = molecular target: HLH4-BD (HLH4 in pGBKT7) (A. thaliana); test: two-hybrid; HLH4 in pGBKT7 (bait) and preys in pGADT7, co-transfected into yeast strain Y2HGold; β-galactosidase assay on SD-trp-leu medium

binding [5]	Molecule	also measured
–	HLH4-nYFP-3× FLAG (A. thaliana)	binding [1]: binds; binding [2]: binds; binding [3]: binds; binding [4]: binds
binds	CIL1 (prey in pGADT7) (protein, UniProt Q9CAA9 1-486) MDLSAKDEFSAEKRNPDNYDSVNNPSGDWRVDSYPSENLISAGPASCSPSQMMDSFGQTLWYDPTSVQAVGYAGFNGGNASSSSFRGSIDRSLEMGWNLPNLLPPKGNGLFLPNASSFLPPSMAQFPADSGFIERAARFSLFSGGNFSDMVNQPLGNSEAIGLFLQGGGTMQGQCQSNELNVGEPHNDVSVAVKESTVRSSEQAKPNVPGSGNVSEDTQSSGGNGQKGRETSSNTKKRKRNGQKNSEAAQSHRSQQSEEEPDNNGDEKRNDEQSPNSPGKKSNSGKQQGKQSSDPPKDGYIHVRARRGQATNSHSLAERVRREKISERMKFLQDLVPGCNKVTGKAVMLDEIINYVQSLQRQVEFLSMKLATVNPQMDFNLEGLLAKDALQLRAGSSSTTPFPPNMSMAYPPLPHGFMQQTLSSIGRTITSPLSPMNGGFKRQETNGWEGDLQNVIHINYGAGDVTPDPQAAATASLPAANMKVEP	–
binds	PRE1-AD (PRE1 in pGADT7) (protein, UniProt Q9FLE9 1-92) MSNRRSRQSSSAPRISDNQMIDLVSKLRQILPEIGQRRRSDKASASKVLQETCNYIRNLNREVDNLSERLSQLLESVDEDSPEAAVIRSLLM	–
no binding	ICE1 (prey in pGADT7) (protein, UniProt Q9LSE2 1-494) MGLDGNNGGGVWLNGGGGEREENEEGSWGRNQEDGSSQFKPMLEGDWFSSNQPHPQDLQMLQNQPDFRYFGGFPFNPNDNLLLQHSIDSSSSCSPSQAFSLDPSQQNQFLSTNNNKGCLLNVPSSANPFDNAFEFGSESGFLNQIHAPISMGFGSLTQLGNRDLSSVPDFLSARSLLAPESNNNNTMLCGGFTAPLELEGFGSPANGGFVGNRAKVLKPLEVLASSGAQPTLFQKRAAMRQSSGSKMGNSESSGMRRFSDDGDMDETGIEVSGLNYESDEINESGKAAESVQIGGGGKGKKKGMPAKNLMAERRRRKKLNDRLYMLRSVVPKISKMDRASILGDAIDYLKELLQRINDLHNELESTPPGSLPPTSSSFHPLTPTPQTLSCRVKEELCPSSLPSPKGQQARVEVRLREGRAVNIHMFCGRRPGLLLATMKALDNLGLDVQQAVISCFNGFALDVFRAEQCQEGQEILPDQIKAVLFDTAGYAGMI	–
binds	CIB5-AD (CIB5 in pGADT7) (protein, UniProt Q9C670 1-390) MSDKDEFAAKKKDLVNTPVDLYPPENPMLGPSPMMDSFRETLWHDGGFNVHTDADTSFRGNNNIDIPLEMGWNMAQFPADSGFIERAAKFSFFGCGEMMMNQQQSSLGVPDSTGLFLQDTQIPSGSKLDNGPLTDASKLVKERSINNVSEDSQSSGGNGHDDAKCGQTSSKGFSSKKRKRIGKDCEEEEDKKQKDEQSPTSNANKTNSEKQPSDSLKDGYIHMRARRGQATNSHSLAERVRREKISERMKFLQDLVPGCDKVTGKAVMLDEIINYVQSLQCQIEFLSMKLSAVNPVLDFNLESLLAKDALQSSAPTFPHNMSMLYPPVSYLSQTGFMQPNISSMSLLSGGLKRQETHGYESDHHNLVHMNHETGTAPDHEDTTADMKVEP	–
